In paper PMC9585074:
No constants are given. Whether binding was seen depends on the method and setting. Binding seen in cells or lysates may run through a third protein. A result given as binding can be weak or reduced; the word gives no strength. Tags and fused reporters may be left off the sequences shown.

Target: human myc-tagged essential myosin light chain (ELC) (human)
Assay: co-IP; human myc-tagged ELC and deletion variants of human flag-tagged NEK9 overexpressed; IP and immunoblot, interaction intensity quantified

binding: binds
B1: human flag-tagged NEK9^Middle(309-726)del (enzyme, UniProt Q8TD19)
chain: MSVLGEYERHCDSINSDFGSESGGCGDSSPGPSASQGPRAGGGAAEQEELHYIPIRVLGRGAFGEATLYRRTEDDSLVVWKEVDLTRLSEKERRDALNEIVILALLQHDNIIAYYNHFMDNTTLLIELEYCNGGNLYDKILRQKDKLFEEEMVVWYLFQIVSAVSCIHKAGILHRDIKTLNIFLTKANLIKLGDYGLAKKLNSEYSMAETLVGTPYYMSPELCQGVKYNFKSDIWAVGCVIFELLTLKRTFDATNPLNLCVKIVQGIRAMEVDSSQYSLELIQMVHSCLDQDPEQRPTADELLDRPLLVLNSKTIRSNSSGLSIGTVFQSSSPGGGGGGGGGEEEDSQQESETPDPSGGFRGTMEADRGMEGLISPTEAMGNSNGASSSCPGWLRKELENAEFIPMPDSPSPLSAAFSESEKDTLPYEELQGLKVASEAPLEHKPQVEASSPRLNPAVTCAGKGTPLTPPACACSSLQVEVERLQGLVLKCLAEQQKLQQENLQIFTQLQKLNKKLEGGQQVGMHSKGTQTAKEEMEMDPKPDLDSDSWCLLGTDSCRPSL
